PubChem BioAssay AID504775 (Broad Institute, 2011)
About 310 (0.097%) of roughly 320,000 compounds were called active. The shares of active, inactive and inconclusive entries below differ from those in the screen.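 Rule for the calls: active = mean replicate activation of at least 60% and every replicate at or above 60%; inconclusive = mean or all-replicate condition met, but not both; inactive = mean below 60% and not all replicates reaching 60%.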

Assay: enhancers of HDL lipid transfer via mSR-BI – ldlA[mSR-BI] CHO cells, DiI fluorescence, primary screen (AID 504775);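 note: 0% = median plate neutral-control signal and 100% = twice that signal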
Conditions: DiI-HDL uptake fluorescence, 3 h, at 12.5 µM, active compounds read high, 100 = double the neutral-control signal
Outline: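 Test system: SR-BI-overexpressing, LDLR-lacking CHO cells; Medium: Ham's F12 with 0.5% BSA, HEPES 25 mM, pH 7.4; Schedule: 3 h, 37 °C; Technique: bottom-read fluorescence, 550/595 nm.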

SMILES	activation
C=CCn1c(SCc2c(C)noc2C)nnc1C1COc2ccccc2O1 (stereo not drawn)	inconclusive: 61.5%
NC(=O)c1ncn([C@@H]2O[C@H](CN=C3NS(=O)(=O)c4ccccc43)[C@@H](O)[C@H]2O)n1	active: 74.1%
Oc1ccc(C[C@H]2CNC(=S)N2CC2CCCN2C[C@H](Cc2ccc(O)cc2)N2C[C@H](Cc3ccccc3)N(CC3CCCCCC3)C2=S)cc1 (stereo partly drawn)	active: 67.9%
CCc1ccc(-n2c(=S)sc3c(=O)n(-c4ccccc4OC)c(=S)[nH]c32)cc1	inconclusive: 63%
Cc1ccc(-n2nc3c(=O)n(CC(=O)NCc4ccccc4)nc(C)c3c2C)cc1	inactive: 6.75%
O=C(NCCCN1CCCC1=O)c1ccc(OC(F)(F)F)cc1	inconclusive: 77.3%
COc1ccccc1CN1CCNC(=O)C1CC(=O)NCc1c(C)n[nH]c1C (stereo not drawn)	inactive: 13.4%
N#C/C(=C\c1c(N2CCC(C(N)=O)CC2)nc2ccccn2c1=O)C(=O)NCc1ccco1	inconclusive: 60.8%
C[C@@H]1CN([C@H](C)CO)C(=O)c2cccc(NC(=O)c3ccncc3)c2O[C@@H]1CN(C)Cc1ccc(C(=O)O)cc1	inactive: 33.1%
CC(=O)Nc1ccc(OCC(O)Cn2cnc3ccccc32)cc1 (stereo not drawn)	inconclusive: 130%
O=C(NNS(=O)(=O)c1ccc([N+](=O)[O-])cc1)C1CCCCC1	active: 62.5%
N/C(=N\OC(=O)COc1ccc(Br)cc1)c1ccncc1	inconclusive: 61.6%
Cc1ccc(O)c(C2=NNC(O)(C(F)(F)F)C2)c1 (stereo not drawn)	inactive: -8.14%
CCN(CC)c1cc(NCCO)c([N+](=O)[O-])c2nonc12	inconclusive: 110%
O=C(O)c1ccc2c(c1)OCCOCCOCCOCCOCCO2	inconclusive: 113%
COc1ccccc1CNCCS(=O)(=O)NN1CCOCC1	inactive: 4.88%
COC(=O)c1c(NC(=O)CSc2nnc(CNc3ccc(Cl)cc3)o2)sc(C)c1C	inactive: -42%
Cc1nc2ccc(C(=O)N(C)CC3CCCN(CCc4ccc(Cl)cc4)C3)cc2[nH]1 (stereo not drawn)	inconclusive: 87.4%
CCC(C)(C)C1CCC(NC(=O)c2ccc(S(=O)(=O)N3CCOCC3)cc2)CC1 (stereo not drawn)	active: 66.6%
Cc1ccc(Cl)cc1N1CCN(S(=O)(=O)c2ccc3c(c2)CC(=O)N3C)CC1	inconclusive: 152%
COc1ccc(S(=O)(=O)NCc2ccc3c(c2)OCO3)cc1OC	inactive: -30.5%
O=C(OC1CCOC1=O)c1cc(-c2cccc(Br)c2)nc2ccccc12 (stereo not drawn)	inconclusive: 126%
CCOc1cc(C(=O)NC)cc(Br)c1OCc1ccccc1	inactive: -17.6%

In a second layout: entries from further up
Cc1ccc(Cl)cc1N1CCN(S(=O)(=O)c2ccc3c(c2)CC(=O)N3C)CC1
  activation: inconclusive: 152%
COc1ccc(S(=O)(=O)NCc2ccc3c(c2)OCO3)cc1OC
  activation: inactive: -30.5%
